These are yes or no findings as the source states them, for the method shown.
Assays:
Assay in all cases: negative-stain electron microscopy
[1] = target: TorsinA K148E (human, residues 51-332) (human) (UniProt O14656)
[2] = target: TorsinA K184E (human, residues 51-332) (human) (UniProt O14656)
[3] = target: TorsinA D264A (human, residues 51-332) (human) (UniProt O14656)
[4] = target: TorsinA D188A (human, residues 51-332) (human) (UniProt O14656)
[5] = target: MBP-TorsinA E171Q (residues 51-332) (human) (UniProt O14656)
[6] = target: TorsinAΔE (human TorsinA residues 51-332, deletion of glutamate 303) (human) (UniProt O14656)
[7] = target: TorsinA D188Y (human, residues 51-332) (human) (UniProt O14656)
[8] = target: TorsinA G251Y (human, residues 51-332) (human) (UniProt O14656)

Sequences of proteins named here, by UniProt entry; tags and fusion partners are left off. A change or cut given only in a name is not applied to a line headed by its entry. A line that says so, or that is headed by a name, gives the form on record, which may keep a tag or linker. Residues count along the entry.
TorsinA K148E (human, residues 51-332) (O14656, form named): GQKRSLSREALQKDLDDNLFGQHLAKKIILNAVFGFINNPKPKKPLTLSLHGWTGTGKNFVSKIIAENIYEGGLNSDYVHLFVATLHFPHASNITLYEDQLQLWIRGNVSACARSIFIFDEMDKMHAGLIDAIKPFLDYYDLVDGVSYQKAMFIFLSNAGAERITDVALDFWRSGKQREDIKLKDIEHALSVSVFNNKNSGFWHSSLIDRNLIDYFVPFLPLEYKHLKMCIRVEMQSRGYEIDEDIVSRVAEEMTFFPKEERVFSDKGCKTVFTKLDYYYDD
TorsinA K184E (human, residues 51-332) (O14656, form named): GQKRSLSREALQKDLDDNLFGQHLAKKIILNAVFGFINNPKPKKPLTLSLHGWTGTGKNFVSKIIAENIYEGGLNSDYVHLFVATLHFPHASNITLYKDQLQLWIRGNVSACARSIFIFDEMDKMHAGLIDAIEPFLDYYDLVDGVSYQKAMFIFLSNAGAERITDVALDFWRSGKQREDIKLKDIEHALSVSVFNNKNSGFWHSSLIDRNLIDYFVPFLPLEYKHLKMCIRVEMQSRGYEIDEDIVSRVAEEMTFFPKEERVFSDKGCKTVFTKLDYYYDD
TorsinA D264A (human, residues 51-332) (O14656, form named): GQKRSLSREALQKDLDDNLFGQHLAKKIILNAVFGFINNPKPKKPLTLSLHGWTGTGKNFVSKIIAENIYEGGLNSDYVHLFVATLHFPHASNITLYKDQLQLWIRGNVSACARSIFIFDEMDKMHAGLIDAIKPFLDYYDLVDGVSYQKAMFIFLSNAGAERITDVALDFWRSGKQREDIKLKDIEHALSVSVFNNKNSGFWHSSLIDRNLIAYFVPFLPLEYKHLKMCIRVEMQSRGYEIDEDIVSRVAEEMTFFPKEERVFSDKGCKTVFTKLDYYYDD
TorsinA D188A (human, residues 51-332) (O14656, form named): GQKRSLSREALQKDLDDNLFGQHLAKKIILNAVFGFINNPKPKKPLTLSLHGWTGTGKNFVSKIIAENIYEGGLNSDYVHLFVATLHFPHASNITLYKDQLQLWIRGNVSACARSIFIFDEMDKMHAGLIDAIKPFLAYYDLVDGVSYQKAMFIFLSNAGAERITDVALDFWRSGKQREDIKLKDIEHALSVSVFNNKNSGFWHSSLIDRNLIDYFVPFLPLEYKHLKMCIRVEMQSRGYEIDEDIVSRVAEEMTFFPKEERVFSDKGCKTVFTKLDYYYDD
MBP-TorsinA E171Q (residues 51-332) (O14656, form named): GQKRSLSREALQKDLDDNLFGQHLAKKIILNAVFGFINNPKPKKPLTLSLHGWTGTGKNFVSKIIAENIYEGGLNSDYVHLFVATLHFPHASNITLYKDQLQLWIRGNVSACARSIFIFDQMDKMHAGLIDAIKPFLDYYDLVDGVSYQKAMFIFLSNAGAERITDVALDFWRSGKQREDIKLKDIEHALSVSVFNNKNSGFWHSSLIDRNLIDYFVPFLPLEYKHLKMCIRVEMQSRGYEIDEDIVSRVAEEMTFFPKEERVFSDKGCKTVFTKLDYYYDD
TorsinAΔE (human TorsinA residues 51-332, deletion of glutamate 303) (O14656, form named): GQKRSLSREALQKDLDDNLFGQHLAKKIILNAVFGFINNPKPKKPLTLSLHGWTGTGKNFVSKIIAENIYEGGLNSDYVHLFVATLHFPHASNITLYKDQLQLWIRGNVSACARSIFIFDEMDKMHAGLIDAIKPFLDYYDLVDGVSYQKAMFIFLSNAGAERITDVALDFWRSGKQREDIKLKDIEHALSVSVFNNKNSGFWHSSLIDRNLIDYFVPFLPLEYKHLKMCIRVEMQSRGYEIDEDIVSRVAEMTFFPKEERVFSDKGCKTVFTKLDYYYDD
TorsinA D188Y (human, residues 51-332) (O14656, form named): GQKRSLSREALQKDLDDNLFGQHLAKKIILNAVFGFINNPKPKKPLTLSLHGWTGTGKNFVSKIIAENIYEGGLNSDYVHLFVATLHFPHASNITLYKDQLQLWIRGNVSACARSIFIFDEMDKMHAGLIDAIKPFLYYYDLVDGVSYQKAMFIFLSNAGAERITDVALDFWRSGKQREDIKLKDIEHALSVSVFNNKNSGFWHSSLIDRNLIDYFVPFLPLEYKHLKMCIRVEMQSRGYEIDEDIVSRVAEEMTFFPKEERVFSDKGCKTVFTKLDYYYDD
TorsinA G251Y (human, residues 51-332) (O14656, form named): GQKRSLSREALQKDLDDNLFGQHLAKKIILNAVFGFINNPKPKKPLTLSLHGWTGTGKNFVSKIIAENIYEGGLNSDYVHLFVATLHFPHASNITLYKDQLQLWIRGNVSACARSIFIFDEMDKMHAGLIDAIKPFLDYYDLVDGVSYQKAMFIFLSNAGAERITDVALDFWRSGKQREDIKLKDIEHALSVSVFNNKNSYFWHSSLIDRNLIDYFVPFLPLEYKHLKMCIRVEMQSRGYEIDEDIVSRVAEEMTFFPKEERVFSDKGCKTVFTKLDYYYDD

TorsinA K148E (human, residues 51-332) (from UniProt O14656 51-332) (domain or fragment)
binding [1]: no binding

TorsinA K184E (human, residues 51-332) (from UniProt O14656 51-332) (domain or fragment)
binding [2]: no binding

TorsinA D264A (human, residues 51-332) (from UniProt O14656 51-332) (domain or fragment)
binding [3]: no binding

TorsinA D188A (human, residues 51-332) (from UniProt O14656 51-332) (domain or fragment)
binding [4]: no binding

MBP-TorsinA E171Q (residues 51-332) (from UniProt O14656 51-332) (domain or fragment)
binding [5]: no binding

TorsinAΔE (human TorsinA residues 51-332, deletion of glutamate 303) (from UniProt O14656 51-332) (domain or fragment)
binding [6]: no binding

TorsinA D188Y (human, residues 51-332) (from UniProt O14656 51-332) (domain or fragment)
binding [7]: no binding

TorsinA G251Y (human, residues 51-332) (from UniProt O14656 51-332) (domain or fragment)
binding [8]: no binding

Reference: paper doi:10.1101/567099 (bioRxiv, 2019)
